Assay results reported in article PMC11789580.
These are yes or no findings as the source states them, for the method shown. In cells and extracts the contact can be indirect. A yes stands for co-enrichment or nearness to the bait. Other partners may have been found.

Target: T1, MORF2 of the MORF2 overexpression line (MORF2OX) (Arabidopsis) (UniProt O22793)
T1 sequence: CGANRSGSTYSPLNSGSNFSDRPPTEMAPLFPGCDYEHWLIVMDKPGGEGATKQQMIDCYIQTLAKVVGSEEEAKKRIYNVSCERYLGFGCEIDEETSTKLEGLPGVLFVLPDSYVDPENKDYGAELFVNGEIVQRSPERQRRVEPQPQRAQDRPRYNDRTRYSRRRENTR
Experiment: affinity purification with mass spectrometry; Co-IP of MORF2 from the MORF2 overexpression line (MORF2OX), wild type as negative control; carried out previously (ref. 31), RPOTp counts shown in Figure 1A

- binding: binds
B1: RPOTp (endogenous, Arabidopsis) (enzyme, UniProt O24600 96-993)
chain: AGTIKGASLIEELENPVERNGLSGRRRLFMQDPPWISALFLKGLSKMVDQTLKIERKDIDKRKFDSLRRRQVKEETEAWERMVDEYRDLEKEMCEKNLAPNLPYVKHMFLGWFQPLKDVIEREQKLQKNKSKKVRAAYAPHIELLPADKMAVIVMHKMMGLVMSGHEDGCIQVVQAAVSIGIAIEQEVRIHNFLKRTRKNNAGDSQEELKEKQLLRKRVNSLIRRKRIIDALKVVKSEGTKPWGRATQAKLGSRLLELLIEAAYVQPPLTQSGDSIPEFRPAFRHRFKTVTKYPGSKLVRRYGVIECDSLLLAGLDKSAKHMLIPYVPMLVPPKRWKGYDKGGYLFLPSYIMRTHGSKKQQDALKDISHKTAHRVFEALDTLGNTKWRVNRNILDVVERLWADGGNIAGLVNREDVPIPEKPSSEDPEELQSWKWSARKANKINRERHSLRCDVELKLSVARKMKDEEGFYYPHNLDFRGRAYPMHPHLNHLSSDLCRGTLEFAEGRPLGKSGLHWLKIHLANLYAGGVEKLSHDARLAFVENHLDDIMDSAENPIHGKRWWLKAEDPFQCLAACVILTQALKSPSPYSVISHLPIHQDGSCNGLQHYAALGRDSFEAAAVNLVAGEKPADVYSEISRRVHEIMKKDSSKDPESNPTAALAKILITQVDRKLVKQTVMTSVYGVTYVGAREQIKRRLEEKGVITDERMLFAAACYSAKVTLAALGEIFEAARAIMSWLGDCAKIIASDNHPVRWITPLGLPVVQPYCRSERHLIRTSLQVLALQREGNTVDVRKQRTAFPPNFVHSLDGTHMMMTAVACREAGLNFAGVHDSYWTHACDVDTMNRILREKFVELYNTPILEDLLQSFQESYPNLVFPPVPKRGDFDLKEVLKSQYFFN
